Data from patent publication US10299502B2, “Method for producing an extract of a matrix of vegetable origin with a non-ionic amphiphilic compound as extraction adjuvant in an aqueous medium” (PIERRE FABRE DERMO-COSMETIQUE, priority 2015, dated 2019).

Experiment: Extraction of α-mangostin from mangosteen pericarps with aqueous solutions of amphiphilic compound
Design: species or system Garcinia mangostana
From the text: These values are necessary to implement the extraction method, such as for example the extraction of α-mangostin from mangosteen pericarps:
At 25% APXC4, the active substance content extracted from mangosteen pericarps is equivalent to that obtained by ethyl acetate reflux extraction, which is not the case at 5% (concentration below the MHC).

CCOC(C)=O [AcOEt, ethyl acetate, reference compound]
g of α-mangostin extracted % g of plant (concentration 100%, ethyl acetate reflux extraction): 7.49 g % g of plant

CC(C)(O)CCO [Isopentyldiol, 3-methyl-1,3-butanediol]
g of α-mangostin extracted % g of plant (compound concentration 59%): 6.59 g % g of plant

amyl xyloside
g of α-mangostin extracted % g of plant (compound concentration 40%): 7.30 g % g of plant
